Data from US20190337880.
The exact form of at least one protein or probe is not confirmed. At least one result comes from cells or an extract, where the contact may be indirect. Where a protein sequence is shown, tags need not be part of it.

Target: T1, SOX18 cMyc-tagged (Mus musculus) (UniProt P43680)
T1 sequence (looked up, limits assumed): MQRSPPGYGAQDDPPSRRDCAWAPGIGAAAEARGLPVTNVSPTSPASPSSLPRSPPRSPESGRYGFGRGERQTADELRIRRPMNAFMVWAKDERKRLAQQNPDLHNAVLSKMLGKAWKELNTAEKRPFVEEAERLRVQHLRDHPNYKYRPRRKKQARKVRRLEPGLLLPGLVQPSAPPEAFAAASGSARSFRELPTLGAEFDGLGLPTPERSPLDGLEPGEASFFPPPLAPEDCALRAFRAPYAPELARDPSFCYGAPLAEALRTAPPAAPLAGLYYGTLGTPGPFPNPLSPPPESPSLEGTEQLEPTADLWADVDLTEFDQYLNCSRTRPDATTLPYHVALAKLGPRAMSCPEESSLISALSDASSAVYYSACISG
Experiment: binding assay
Settings: ChIP-seq motif enrichment in HUVEC; protein in cells; protein details: cMyc (pSG5 cMyc-Sox18), expressed in HUVEC

Does “AACAAT (double strand) [SOX18 ChIP-seq top motif]” bind?
Result: binds
